Reference: the supplement of paper PMC8728848
This is one part of the list.

Columns and labels:
Assay in all cases: glycan array binding signal (z-score within array); higher = stronger binding
Conditions in all cases: glycan notation: IUPAC condensed, linker removed
[1] = target: Fuc(a1-2)[GalNAc(a1-3)]Gal(b1-3)GlcNAc(b1-3)GalNAc
Method in brief: (§1)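 Columns mapping to the same glycan were averaged after glycan names were converted to IUPAC-condensed notation. The data come from 3228 arrays in the Consortium for Functional Glycomics database, limited to those with an available protein sequence. Binding is reported as a within-array Z-score averaged across arrays of one protein sequence and across linkers.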

[2] = target: Fuc(a1-2)[GalNAc(a1-3)]Gal(b1-3)GlcNAc(b1-6)GalNAc
Method in brief: as §1

[3] = target: Fuc(a1-2)[GalNAc(a1-3)]Gal(b1-4)Glc
Method in brief: as §1

[4] = target: Fuc(a1-2)[GalNAc(a1-3)]Gal(b1-4)GlcNAc
Method in brief: as §1

[5] = target: Fuc(a1-2)[GalNAc(a1-3)]Gal(b1-4)GlcNAc(b1-2)Man
Method in brief: as §1

[6] = target: Fuc(a1-2)[GalNAc(a1-3)]Gal(b1-4)GlcNAc(b1-2)Man(a1-3)[Fuc(a1-2)[GalNAc(a1-3)]Gal(b1-4)GlcNAc(b1-2)Man(a1-6)]Man(b1-4)GlcNAc(b1-4)GlcNAc
Method in brief: as §1

[7] = target: Fuc(a1-2)[GalNAc(a1-3)]Gal(b1-4)GlcNAc(b1-2)Man(a1-3)[Fuc(a1-2)[GalNAc(a1-3)]Gal(b1-4)GlcNAc(b1-2)Man(a1-6)]Man(b1-4)GlcNAc(b1-4)[Fuc(a1-6)]GlcNAc
Method in brief: as §1

[8] = target: Fuc(a1-2)[GalNAc(a1-3)]Gal(b1-4)GlcNAc(b1-3)Gal(b1-4)GlcNAc
Method in brief: as §1

[9] = target: Fuc(a1-2)[GalNAc(a1-3)]Gal(b1-4)GlcNAc(b1-3)Gal(b1-4)GlcNAc(b1-3)Gal(b1-4)GlcNAc
Method in brief: as §1

[10] = target: Fuc(a1-2)[GalNAc(a1-3)]Gal(b1-4)GlcNAc(b1-3)GalNAc
Method in brief: as §1

[11] = target: Fuc(a1-2)[GalNAc(a1-3)]Gal(b1-4)GlcNAc(b1-3)[Fuc(a1-2)[GalNAc(a1-3)]Gal(b1-4)GlcNAc(b1-6)]GalNAc
Method in brief: as §1

[12] = target: Fuc(a1-2)[GalNAc(a1-3)]Gal(b1-4)GlcNAc(b1-6)GalNAc
Method in brief: as §1

[13] = target: Fuc(a1-2)[GalNAc(a1-3)]Gal(b1-4)[Fuc(a1-3)]GlcNAc
Method in brief: as §1

[14] = target: Fuc(a1-2)[GalNAc(a1-3)]Gal(b1-4)[Fuc(a1-3)]GlcNAc(b1-3)GalNAc
Method in brief: as §1

[15] = target: Fuc(a1-2)[GalNAc(a1-4)]Gal(b1-4)GlcNAc
Method in brief: as §1

[16] = target: Fuc(a1-2)[GalNAc(b1-3)]Gal
Method in brief: as §1

Fuc(a1-3)GlcNAc = target: Fuc(a1-3)GlcNAc
Method in brief: as §1

[17] = target: Fuc(a1-3)[Gal(b1-4)]Glc6S
Method in brief: as §1

[18] = target: Fuc(a1-3)[Gal(b1-4)]GlcNAc
Method in brief: as §1

[19] = target: Fuc(a1-3)[Gal(b1-4)]GlcNAc(b1-2)Man
Method in brief: as §1

[20] = target: Fuc(a1-3)[Gal(b1-4)]GlcNAc(b1-2)Man(a1-3)[Fuc(a1-3)[Gal(b1-4)]GlcNAc(b1-2)Man(a1-6)]Man(b1-4)GlcNAc(b1-4)GlcNAc
Method in brief: as §1

[21] = target: Fuc(a1-3)[Gal(b1-4)]GlcNAc(b1-2)Man(a1-3)[Fuc(a1-3)[Gal(b1-4)]GlcNAc(b1-2)Man(a1-6)]Man(b1-4)GlcNAc(b1-4)[Fuc(a1-6)]GlcNAc
Method in brief: as §1

[22] = target: Fuc(a1-3)[Gal(b1-4)]GlcNAc(b1-3)Gal(b1-3)[Fuc(a1-4)]GlcNAc
Method in brief: as §1

[23] = target: Fuc(a1-3)[Gal(b1-4)]GlcNAc(b1-3)Gal(b1-4)[Fuc(a1-3)]GlcNAc
Method in brief: as §1

[24] = target: Fuc(a1-3)[Gal(b1-4)]GlcNAc(b1-3)Gal(b1-4)[Fuc(a1-3)]GlcNAc(b1-3)Gal(b1-4)[Fuc(a1-3)]GlcNAc
Method in brief: as §1

[25] = target: Fuc(a1-3)[Gal(b1-4)]GlcNAc(b1-3)GalNAc
Method in brief: as §1

[26] = target: Fuc(a1-3)[Gal(b1-4)]GlcNAc(b1-6)GalNAc
Method in brief: as §1

[27] = target: Fuc(a1-3)[Gal(b1-4)]GlcNAc(b1-6)[Gal(b1-3)GlcNAc(b1-3)]Gal(b1-4)Glc
Method in brief: as §1

[28] = target: Fuc(a1-3)[Gal(b1-4)]GlcNAc6S
Method in brief: as §1

[29] = target: Fuc(a1-3)[Gal3S(b1-4)]Glc
Method in brief: as §1

[30] = target: Fuc(a1-3)[Gal3S(b1-4)]GlcNAc
Method in brief: as §1

[31] = target: Fuc(a1-3)[Gal3S(b1-4)]GlcNAc6S
Method in brief: as §1

[32] = target: Fuc(a1-3)[GalNAc(b1-4)]GlcNAc
Method in brief: as §1

[33] = target: Fuc(a1-3)[GalNAc(b1-4)]GlcNAc6S
Method in brief: as §1

Fuc(a1-4)GlcNAc = target: Fuc(a1-4)GlcNAc
Method in brief: as §1

Fuc(b1-3)GlcNAc = target: Fuc(b1-3)GlcNAc
Method in brief: as §1

Gal(a1-2)Gal = target: Gal(a1-2)Gal
Method in brief: as §1

Gal(a1-3)Gal = target: Gal(a1-3)Gal
Method in brief: as §1

Gal(a1-3)Gal(b1-3)GlcNAc = target: Gal(a1-3)Gal(b1-3)GlcNAc
Method in brief: as §1

[34] = target: Gal(a1-3)Gal(b1-3)GlcNAc(b1-2)Man
Method in brief: as §1

[35] = target: Gal(a1-3)Gal(b1-3)GlcNAc(b1-2)Man(a1-3)[Gal(a1-3)Gal(b1-3)GlcNAc(b1-2)Man(a1-6)]Man(b1-4)GlcNAc(b1-4)GlcNAc
Method in brief: as §1

[36] = target: Gal(a1-3)Gal(b1-3)GlcNAc(b1-3)GalNAc
Method in brief: as §1

[37] = target: Gal(a1-3)Gal(b1-3)GlcNAc(b1-6)GalNAc
Method in brief: as §1

[38] = target: Gal(a1-3)Gal(b1-3)[Fuc(a1-4)]GlcNAc(b1-2)Man(a1-3)[Gal(a1-3)Gal(b1-3)[Fuc(a1-4)]GlcNAc(b1-2)Man(a1-6)]Man(b1-4)GlcNAc(b1-4)GlcNAc
Method in brief: as §1

Gal(a1-3)Gal(b1-4)Glc = target: Gal(a1-3)Gal(b1-4)Glc
Method in brief: as §1

B1: pTFF2 (Sus scrofa), P01359 (protein)
chain: KPAACRCSRQDPKNRVNCGFPGITSDQCFTSGCCFDSQVPGVPWCFKPLPAQESEECVMEVSARKNCGYPGISPEDCAARNCCFSDTIPEVPWCFFPMSVEACHY
glycan array binding signal (z-score) [1]: 0.556
glycan array binding signal (z-score) [2]: -1.19
glycan array binding signal (z-score) [3]: 0.343
glycan array binding signal (z-score) [4]: -0.76
glycan array binding signal (z-score) [5]: 0.535
glycan array binding signal (z-score) [6]: -0.199
glycan array binding signal (z-score) [7]: 0.517
glycan array binding signal (z-score) [8]: 0.229
glycan array binding signal (z-score) [9]: -0.048
glycan array binding signal (z-score) [10]: 1.82
glycan array binding signal (z-score) [11]: -0.453
glycan array binding signal (z-score) [12]: -0.647
glycan array binding signal (z-score) [13]: -0.904
glycan array binding signal (z-score) [14]: -0.55
glycan array binding signal (z-score) [15]: 0.188
glycan array binding signal (z-score) [16]: 0.984
glycan array binding signal (z-score) (Fuc(a1-3)GlcNAc): -0.529
glycan array binding signal (z-score) [17]: 0.468
glycan array binding signal (z-score) [18]: 0.266
glycan array binding signal (z-score) [19]: -0.483
glycan array binding signal (z-score) [20]: 1.37
glycan array binding signal (z-score) [21]: -0.109
glycan array binding signal (z-score) [22]: -0.004
glycan array binding signal (z-score) [23]: 0.225
glycan array binding signal (z-score) [24]: 0.381
glycan array binding signal (z-score) [25]: -0.276
glycan array binding signal (z-score) [26]: -0.248
glycan array binding signal (z-score) [27]: -0.161
glycan array binding signal (z-score) [28]: 0.435
glycan array binding signal (z-score) [29]: -0.916
glycan array binding signal (z-score) [30]: 0.671
glycan array binding signal (z-score) [31]: -0.432
glycan array binding signal (z-score) [32]: 1.16
glycan array binding signal (z-score) [33]: -0.98
glycan array binding signal (z-score) (Fuc(a1-4)GlcNAc): -0.026
glycan array binding signal (z-score) (Fuc(b1-3)GlcNAc): 0.781
glycan array binding signal (z-score) (Gal(a1-2)Gal): -0.358
glycan array binding signal (z-score) (Gal(a1-3)Gal): -0.276
glycan array binding signal (z-score) (Gal(a1-3)Gal(b1-3)GlcNAc): -0.431
glycan array binding signal (z-score) [34]: -1.06
glycan array binding signal (z-score) [35]: -0.447
glycan array binding signal (z-score) [36]: 1.68
glycan array binding signal (z-score) [37]: 0.622
glycan array binding signal (z-score) [38]: -0.386
glycan array binding signal (z-score) (Gal(a1-3)Gal(b1-4)Glc): -0.4
